Laboratory results from PubChem BioAssay AID1487 (National Center for Advancing Translational Sciences (NCATS), 2009).
Hit rate of the full screen: of about 200,000 compounds, about 25 (0.01%) were called active. The inconclusive results got no clear call from the source; some entries with a clear call stand among them for comparison. The call rests on the fitted dose curve; in most records, active means well fitted inhibition curve with a large enough effect in the signal ratio, with a control signal flat (not every such curve was filed as active); inconclusive means small, poorly fitted or top-dose-only effect, or effect the other way, or a change in a side signal; inactive means flat fitted curve, though single readings scatter; the % refers to the signal ratio. Potencies of inconclusive entries are doubtful fits and often do not repeat.

Test: qHTS Assay for Modulators of Lamin A Splicing
Settings: HeLa LMNA splicing GFP/RFP minigene ratio, 48 h
Method in brief: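 S3 HeLa stable clones carrying a lamin A-EGFP splicing minigene plus DsRed2 were seeded at 600 cells/well in Opti-MEM with 2% FBS, pin-dosed and incubated 48 h at 37°C. Acumen cytometry (488 nm) gave the GFP/RFP total-intensity ratio.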

[1] = ratio change, negative = inhibition: at 46.1 µM (top of the series) unless noted
On the % scale 0 is the no-effect control and ±100 the full control effect; potency means the concentration at half of the fitted maximal effect.

SMILES: Cc1onc(-c2c(Cl)cccc2Cl)c1C(=O)c1c[nH]c(C(=O)NCCCN2CCOCC2)c1
- ratio change, negative = inhibition [1]: inactive

SMILES: Cc1nnc(SCC(=O)Nc2ccc(Cl)cn2)s1
- ratio change, negative = inhibition [1]: inactive

SMILES: O=C(N/N=C\c1ccc([N+](=O)[O-])o1)c1ccc(O)cc1
- ratio change, negative = inhibition [1]: inconclusive: -6.42%

SMILES: O=C(O)Cn1cc(/C=C2/NC(=O)N(c3ccc(Cl)cc3)C2=O)c2ccccc21
- ratio change, negative = inhibition [1]: inconclusive: 38.5% [at 9.22 µM]

SMILES: COc1ccc(Oc2nc(C(F)(F)F)nc3ccccc23)cc1
- ratio change, negative = inhibition [1]: inactive

SMILES: O=C(O)CCCCn1c(SCC(=O)Nc2ccccc2C(F)(F)F)nc2ccsc2c1=O
- ratio change, negative = inhibition (at 46.1 µM (top of the series)): inactive: 6.53%
- ratio change, negative = inhibition [1]: inconclusive: 27.2% [at 46 µM]

SMILES: Cc1ccc(S(=O)(=O)/N=C2/NC(=O)/C(=C/c3ccccn3)S2)cc1
- ratio change, negative = inhibition [1]: inactive

SMILES: CC(=O)Nc1ccc(NC(=O)Cc2sc(-c3cccnc3)nc2-c2ccc(C)cc2)cc1
- ratio change, negative = inhibition [1]: inactive

SMILES: COc1ccc2nc(NCc3ccccc3)[nH]c2c1
- ratio change, negative = inhibition [1]: inactive

SMILES: OC(CN=c1sc2ccccc2n1CC(O)COc1ccccc1)COc1ccccc1 (stereo unspecified)
- Potency [1]: inconclusive: 35.5 µM [cytotoxic, single point]

SMILES: S=c1[nH]nc(-c2ccco2)n1/N=C/c1cccc(Cl)c1Cl
- ratio change, negative = inhibition [1]: inactive

SMILES: Cc1ccc(-n2nc(C)c3c(C)c(CCC(=O)NCc4ccccc4)c(C)nc32)cc1
- ratio change, negative = inhibition [1]: inactive

SMILES: O=C1c2cccc3cccc(c23)C(=O)N1c1nccs1
- ratio change, negative = inhibition [1]: inactive

SMILES: O=C(CSc1ncnc2c1sc1ccccc12)Nc1ccc(Br)cc1
- ratio change, negative = inhibition [1]: inconclusive: -7.95%

SMILES: CCC(=O)NC(=S)Nc1ccc(S(=O)(=O)N2CCN(C)CC2)cc1
- ratio change, negative = inhibition [1]: inactive

SMILES: CC(C)Cn1c(-c2ccccc2)nc(=S)c2c1CCCC2
- ratio change, negative = inhibition [1]: inactive

SMILES: Nc1cccc(C(=O)OCC(=O)NC2CCCc3ccccc32)c1 (stereo unspecified)
- ratio change, negative = inhibition [1]: inconclusive: 7.47% [at 46 µM]

SMILES: CNC(=S)N(CCc1c(C)[nH]c2ccc(OC)cc12)Cc1cc(OC)c(OC)c(OC)c1
- ratio change, negative = inhibition [1]: inactive

SMILES: COCC1CCCN(Cc2cn(-c3ccccc3F)nc2-c2cc(C)sc2C)C1 (stereo unspecified)
- ratio change, negative = inhibition [1]: inconclusive: -31.6% [at 46 µM]

SMILES: CCc1ccccc1NNC(=O)c1cc(C)on1
- Potency [1]: inconclusive: 11.2 µM [activator, partial curve, poor fit]

SMILES: COC(=O)c1ccc(NC(=O)c2nc(-c3ccc(Cl)cc3)n3c2CCCCC3)cc1
- ratio change, negative = inhibition [1]: inconclusive: -16.6% [at 46 µM]

SMILES: COCCNC(=O)CCCn1c(=O)c2cc(OC)c(OC)cc2n(CC(=O)c2ccccc2)c1=O
- ratio change, negative = inhibition [1]: inconclusive: -16% [at 46 µM]

SMILES: Cc1ccc(C)c(NC(=S)NCc2ccc3[nH]c4c(c3c2)CCCC4)c1
- Potency [1]: inconclusive: 35.5 µM [fluorescent, single point]

SMILES: CC(=O)Nc1ccc(S(=O)(=O)Nc2ccc(N3CCOCC3)cc2)cc1
- ratio change, negative = inhibition [1]: inactive

SMILES: CCOC(=O)c1c(NC(=O)CSc2nnc(C)c(=O)[nH]2)sc2c1CCCC2
- ratio change, negative = inhibition [1]: inconclusive: 16.7%

SMILES: COc1ccc(S(=O)(=O)Nc2ccc(-c3cn4c(C)csc4n3)cc2)cc1
- ratio change, negative = inhibition [1]: inconclusive: 7.63% [at 46 µM]

SMILES: Cc1ccc(Cc2nc(-c3cccnc3)no2)cc1
- ratio change, negative = inhibition [1]: inactive

SMILES: COCCNC(C(=O)Nc1ccc([N+](=O)[O-])cc1Br)c1ccccc1 (stereo unspecified)
- ratio change, negative = inhibition [1]: inconclusive: -2.19%

SMILES: S=C(NCC1CCCO1)NC1CCCC1 (stereo unspecified)
- ratio change, negative = inhibition [1]: inconclusive: -4.54% [at 46 µM]

SMILES: Fc1ccc(CN2CCCCCCC2)cc1F
- ratio change, negative = inhibition [1]: inactive

SMILES: Clc1ccc(-c2nc(-c3ccccn3)no2)cc1Cl
- ratio change, negative = inhibition [1]: inactive

SMILES: CC(N=C(NC#N)Nc1ccncc1)C(C)(C)C (stereo unspecified)
- ratio change, negative = inhibition [1]: inconclusive: 14.2%

SMILES: Cc1c(C(=O)N2CCN(Cc3ccccc3)CC2)sc2ncnc(N3CCOCC3)c12
- ratio change, negative = inhibition [1]: inactive

SMILES: Cc1ccc(F)c(NC(=O)/C(C#N)=C(\O)c2ccc(C(C)(C)C)cc2)c1
- ratio change, negative = inhibition [1]: inconclusive: 39.3% [at 9.22 µM]

SMILES: NC(=O)CSc1nnc(Cn2c(=O)sc3ccccc32)n1-c1ccccc1
- ratio change, negative = inhibition [1]: inactive

SMILES: C/C=C(/C)C(=O)O[C@@H]1[C@H](OC(C)=O)c2c(ccc3ccc(=O)oc23)OC1(C)C
- ratio change, negative = inhibition [1]: inconclusive: 11%

SMILES: CCCCCCCNC(=O)c1ccc(N2CCC3(CC2)OCCO3)c([N+](=O)[O-])c1
- Potency [1]: inconclusive: 35.5 µM [fluorescent, single point]

SMILES: COc1ccc2[nH]c(=O)c(CN(Cc3ccco3)C(=O)c3ccccc3)cc2c1
- ratio change, negative = inhibition [1]: inconclusive: 7.32%

SMILES: COc1ccc(C)cc1NC(=O)C(NCC1CCCO1)c1ccccc1 (stereo unspecified)
- ratio change, negative = inhibition [1]: inconclusive: -0.0134%

SMILES: O=C(NC1=NCCS1)c1cc(-c2cccc(Br)c2)nc2ccccc12
- Potency [1]: inconclusive: 20 µM [fluorescent, single point]

SMILES: Cc1ccc(N=Cc2sc(O)c3ccccc23)c(C)c1
- ratio change, negative = inhibition [1]: inactive

SMILES: CCn1c(-c2ccccc2)c[nH]c1=S
- ratio change, negative = inhibition [1]: inactive

SMILES: COc1ccc(CCC(=O)N2CCc3ccccc32)cc1
- ratio change, negative = inhibition [1]: inconclusive: 8.08%

SMILES: S=C(Nc1ccc(Cl)cc1)N1CCN(Cc2ccccc2)CC1
- ratio change, negative = inhibition [1]: inconclusive: -3.74% [at 46 µM]

SMILES: CSc1ccc(CCNC(=O)CCn2c(=O)c3cccn3c3ccc(F)cc32)cc1
- ratio change, negative = inhibition [1]: inconclusive: 16.9% [at 46 µM]

SMILES: N#CC1=C2SCN(c3ccccc3)CN2C(=O)CC1c1c(Cl)cccc1Cl (stereo unspecified)
- ratio change, negative = inhibition [1]: inactive

SMILES: COc1cccc(/C(O)=C2/C(=O)C(=O)N(Cc3cccnc3)C2c2ccco2)c1 (stereo unspecified)
- ratio change, negative = inhibition [1]: inactive

SMILES: Cc1ccc(C(=O)n2ncn(C)c2=S)cc1
- ratio change, negative = inhibition [1]: inactive

SMILES: Cn1c(-c2ccc3c(c2)OCO3)cnc1NCc1cccc(Cl)c1
- ratio change, negative = inhibition [1]: inactive

SMILES: COc1ccc(N2CCN(C(c3ccccc3)c3sc4nc(-c5ccco5)nn4c3O)CC2)cc1 (stereo unspecified)
- ratio change, negative = inhibition [1]: inactive

SMILES: COc1ccc(C2CC(C)(c3ccc(OC)cc3OC)Nc3ccccc3N2)c(OC)c1 (stereo unspecified)
- ratio change, negative = inhibition [1]: inconclusive: 19% [at 46 µM]

SMILES: S=C(NCc1ccccc1)NCc1cccc(CNC(=S)NCc2ccccc2)c1
- Potency [1]: inconclusive: 35.5 µM [fluorescent, single point]

SMILES: Cc1cc(=O)[nH]c(N/N=C/c2ccccn2)n1
- Potency [1]: inconclusive: 3.98 µM [falling, full curve]

SMILES: Cc1cc(Nc2ccccc2)c2c([N+](=O)[O-])ccc(C)c2n1
- ratio change, negative = inhibition [1]: inconclusive: -11.4%

SMILES: COC1(OC)N=C(N)C2(C#N)C(c3cccc(Oc4ccccc4)c3)C12C#N (stereo unspecified)
- ratio change, negative = inhibition [1]: inactive
